# Measurements taken from the supplement of paper PMC12067093, “Discovery and optimisation of a covalent ligand for TRIM25 and its application to targeted protein ubiquitination” (Chemical Science, 2025).
# By UniProt entry, the sequences of proteins in these tests, tags left out. Where a name states a change or a piece, a line headed by the entry shows the natural chain unless it says otherwise.
# UniProt O75592: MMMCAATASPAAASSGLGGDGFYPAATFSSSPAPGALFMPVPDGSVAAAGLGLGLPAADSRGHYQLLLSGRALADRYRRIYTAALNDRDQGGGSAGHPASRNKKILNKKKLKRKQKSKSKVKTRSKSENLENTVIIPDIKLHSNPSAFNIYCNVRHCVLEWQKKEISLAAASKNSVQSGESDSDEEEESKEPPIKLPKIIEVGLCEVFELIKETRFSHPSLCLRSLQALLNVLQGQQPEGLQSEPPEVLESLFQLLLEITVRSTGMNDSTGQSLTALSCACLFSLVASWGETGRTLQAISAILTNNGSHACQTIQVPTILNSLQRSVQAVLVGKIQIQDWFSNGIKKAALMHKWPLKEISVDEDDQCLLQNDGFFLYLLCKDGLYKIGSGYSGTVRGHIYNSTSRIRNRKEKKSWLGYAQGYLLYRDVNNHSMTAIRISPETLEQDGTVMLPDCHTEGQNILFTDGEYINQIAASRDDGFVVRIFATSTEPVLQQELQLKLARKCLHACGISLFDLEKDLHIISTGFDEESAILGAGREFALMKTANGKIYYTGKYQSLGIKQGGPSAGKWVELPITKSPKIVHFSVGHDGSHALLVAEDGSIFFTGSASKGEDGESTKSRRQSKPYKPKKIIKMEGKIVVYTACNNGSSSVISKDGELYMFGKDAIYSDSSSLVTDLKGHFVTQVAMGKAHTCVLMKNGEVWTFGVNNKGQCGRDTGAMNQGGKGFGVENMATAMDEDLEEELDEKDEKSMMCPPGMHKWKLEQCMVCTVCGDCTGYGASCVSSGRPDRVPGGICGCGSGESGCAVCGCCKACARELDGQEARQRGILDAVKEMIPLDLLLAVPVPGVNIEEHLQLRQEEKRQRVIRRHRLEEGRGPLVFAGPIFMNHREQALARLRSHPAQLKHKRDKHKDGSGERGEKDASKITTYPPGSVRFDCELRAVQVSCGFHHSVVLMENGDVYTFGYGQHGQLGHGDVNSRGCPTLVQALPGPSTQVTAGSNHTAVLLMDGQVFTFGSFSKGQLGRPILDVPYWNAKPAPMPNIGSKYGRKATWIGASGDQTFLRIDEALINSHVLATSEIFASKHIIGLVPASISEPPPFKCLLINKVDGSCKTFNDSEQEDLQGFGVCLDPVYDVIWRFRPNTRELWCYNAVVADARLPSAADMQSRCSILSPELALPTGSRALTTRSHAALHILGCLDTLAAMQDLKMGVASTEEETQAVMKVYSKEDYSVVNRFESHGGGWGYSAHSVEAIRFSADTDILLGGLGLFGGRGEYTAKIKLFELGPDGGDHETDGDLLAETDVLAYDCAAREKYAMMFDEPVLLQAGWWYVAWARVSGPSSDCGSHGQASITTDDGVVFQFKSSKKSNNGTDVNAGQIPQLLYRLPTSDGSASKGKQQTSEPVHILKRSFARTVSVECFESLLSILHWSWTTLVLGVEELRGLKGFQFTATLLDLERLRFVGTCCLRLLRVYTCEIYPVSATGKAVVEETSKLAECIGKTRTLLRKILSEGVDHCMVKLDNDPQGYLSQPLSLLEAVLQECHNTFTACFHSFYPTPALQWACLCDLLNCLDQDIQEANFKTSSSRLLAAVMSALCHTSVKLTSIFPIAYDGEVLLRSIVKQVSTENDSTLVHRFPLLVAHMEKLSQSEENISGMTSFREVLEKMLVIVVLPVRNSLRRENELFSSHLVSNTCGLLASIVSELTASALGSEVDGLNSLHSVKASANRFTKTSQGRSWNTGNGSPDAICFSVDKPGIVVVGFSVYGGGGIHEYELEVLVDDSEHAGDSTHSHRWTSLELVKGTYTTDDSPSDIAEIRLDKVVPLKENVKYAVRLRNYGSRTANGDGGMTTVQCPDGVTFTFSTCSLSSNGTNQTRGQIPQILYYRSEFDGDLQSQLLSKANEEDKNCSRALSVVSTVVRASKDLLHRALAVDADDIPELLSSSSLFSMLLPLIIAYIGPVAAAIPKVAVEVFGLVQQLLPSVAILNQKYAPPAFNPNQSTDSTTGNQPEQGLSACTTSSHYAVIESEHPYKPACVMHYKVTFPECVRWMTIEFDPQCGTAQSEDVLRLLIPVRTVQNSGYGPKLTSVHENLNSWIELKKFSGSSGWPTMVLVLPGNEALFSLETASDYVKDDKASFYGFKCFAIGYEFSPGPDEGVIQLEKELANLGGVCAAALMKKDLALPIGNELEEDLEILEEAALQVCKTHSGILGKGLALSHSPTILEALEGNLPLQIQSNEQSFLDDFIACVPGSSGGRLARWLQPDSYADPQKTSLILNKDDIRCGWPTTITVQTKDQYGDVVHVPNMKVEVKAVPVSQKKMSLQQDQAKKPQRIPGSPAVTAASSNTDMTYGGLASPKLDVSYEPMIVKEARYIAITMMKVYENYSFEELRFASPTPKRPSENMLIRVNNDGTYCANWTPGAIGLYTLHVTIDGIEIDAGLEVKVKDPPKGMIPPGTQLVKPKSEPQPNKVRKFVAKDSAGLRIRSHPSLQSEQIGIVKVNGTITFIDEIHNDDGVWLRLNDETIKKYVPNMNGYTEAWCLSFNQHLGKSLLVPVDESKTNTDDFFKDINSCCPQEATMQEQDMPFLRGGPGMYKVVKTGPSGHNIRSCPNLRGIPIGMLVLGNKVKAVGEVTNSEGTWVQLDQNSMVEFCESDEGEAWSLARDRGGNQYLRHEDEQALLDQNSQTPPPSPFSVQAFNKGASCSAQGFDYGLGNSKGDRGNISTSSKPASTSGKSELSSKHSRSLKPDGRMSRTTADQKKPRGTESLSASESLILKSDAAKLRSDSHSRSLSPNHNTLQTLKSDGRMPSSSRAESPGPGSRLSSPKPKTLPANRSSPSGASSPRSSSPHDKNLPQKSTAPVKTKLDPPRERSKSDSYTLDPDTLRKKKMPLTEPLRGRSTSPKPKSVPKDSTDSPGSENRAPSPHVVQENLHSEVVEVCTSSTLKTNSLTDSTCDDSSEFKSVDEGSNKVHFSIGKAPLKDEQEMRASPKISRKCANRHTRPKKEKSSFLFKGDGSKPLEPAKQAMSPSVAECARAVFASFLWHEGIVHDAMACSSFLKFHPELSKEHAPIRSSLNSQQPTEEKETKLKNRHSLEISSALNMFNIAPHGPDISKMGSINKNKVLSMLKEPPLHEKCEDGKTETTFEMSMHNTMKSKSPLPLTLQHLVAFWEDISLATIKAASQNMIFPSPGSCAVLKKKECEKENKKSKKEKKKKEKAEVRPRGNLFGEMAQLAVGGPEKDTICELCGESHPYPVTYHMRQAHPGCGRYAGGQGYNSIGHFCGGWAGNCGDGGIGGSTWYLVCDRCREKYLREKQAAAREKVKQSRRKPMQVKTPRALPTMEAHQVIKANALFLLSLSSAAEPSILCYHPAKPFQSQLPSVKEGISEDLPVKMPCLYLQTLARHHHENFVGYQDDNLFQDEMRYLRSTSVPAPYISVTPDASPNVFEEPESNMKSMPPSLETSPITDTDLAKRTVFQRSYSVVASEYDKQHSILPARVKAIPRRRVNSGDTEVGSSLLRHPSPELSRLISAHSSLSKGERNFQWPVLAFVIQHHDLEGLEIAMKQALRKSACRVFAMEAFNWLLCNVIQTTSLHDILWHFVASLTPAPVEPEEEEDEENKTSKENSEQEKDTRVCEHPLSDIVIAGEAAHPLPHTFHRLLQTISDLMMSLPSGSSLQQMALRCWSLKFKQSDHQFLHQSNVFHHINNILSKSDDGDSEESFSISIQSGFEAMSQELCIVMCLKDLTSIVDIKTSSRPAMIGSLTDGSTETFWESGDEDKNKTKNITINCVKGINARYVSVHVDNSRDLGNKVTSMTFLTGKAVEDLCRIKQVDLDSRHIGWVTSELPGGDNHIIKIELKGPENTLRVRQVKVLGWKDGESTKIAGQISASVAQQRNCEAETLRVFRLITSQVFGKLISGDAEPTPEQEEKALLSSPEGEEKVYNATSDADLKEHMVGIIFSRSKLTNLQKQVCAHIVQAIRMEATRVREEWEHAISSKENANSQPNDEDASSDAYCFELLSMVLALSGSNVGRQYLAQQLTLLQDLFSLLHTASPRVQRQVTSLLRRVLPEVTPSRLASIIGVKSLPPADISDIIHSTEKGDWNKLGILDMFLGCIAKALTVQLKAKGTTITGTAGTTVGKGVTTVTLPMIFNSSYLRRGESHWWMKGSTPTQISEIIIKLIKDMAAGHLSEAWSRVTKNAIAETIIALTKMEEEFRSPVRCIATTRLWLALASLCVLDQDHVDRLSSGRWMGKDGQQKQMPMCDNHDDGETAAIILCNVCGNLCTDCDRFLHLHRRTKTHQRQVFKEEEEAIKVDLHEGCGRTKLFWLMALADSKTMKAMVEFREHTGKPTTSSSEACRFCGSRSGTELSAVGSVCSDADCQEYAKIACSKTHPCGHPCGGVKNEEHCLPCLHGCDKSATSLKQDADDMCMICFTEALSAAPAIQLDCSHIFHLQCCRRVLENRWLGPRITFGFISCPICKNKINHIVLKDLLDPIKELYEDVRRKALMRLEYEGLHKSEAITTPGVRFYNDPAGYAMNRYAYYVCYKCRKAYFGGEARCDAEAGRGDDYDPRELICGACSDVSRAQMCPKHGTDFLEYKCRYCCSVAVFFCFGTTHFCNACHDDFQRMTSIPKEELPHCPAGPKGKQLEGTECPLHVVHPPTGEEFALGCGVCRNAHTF
# UniProt Q9Y3D2: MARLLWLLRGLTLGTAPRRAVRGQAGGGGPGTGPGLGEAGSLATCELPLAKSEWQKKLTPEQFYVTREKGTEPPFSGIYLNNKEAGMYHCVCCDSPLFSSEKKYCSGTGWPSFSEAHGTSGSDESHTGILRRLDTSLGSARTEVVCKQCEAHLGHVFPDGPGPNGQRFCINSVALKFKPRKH
# UniProt Q9BUK6: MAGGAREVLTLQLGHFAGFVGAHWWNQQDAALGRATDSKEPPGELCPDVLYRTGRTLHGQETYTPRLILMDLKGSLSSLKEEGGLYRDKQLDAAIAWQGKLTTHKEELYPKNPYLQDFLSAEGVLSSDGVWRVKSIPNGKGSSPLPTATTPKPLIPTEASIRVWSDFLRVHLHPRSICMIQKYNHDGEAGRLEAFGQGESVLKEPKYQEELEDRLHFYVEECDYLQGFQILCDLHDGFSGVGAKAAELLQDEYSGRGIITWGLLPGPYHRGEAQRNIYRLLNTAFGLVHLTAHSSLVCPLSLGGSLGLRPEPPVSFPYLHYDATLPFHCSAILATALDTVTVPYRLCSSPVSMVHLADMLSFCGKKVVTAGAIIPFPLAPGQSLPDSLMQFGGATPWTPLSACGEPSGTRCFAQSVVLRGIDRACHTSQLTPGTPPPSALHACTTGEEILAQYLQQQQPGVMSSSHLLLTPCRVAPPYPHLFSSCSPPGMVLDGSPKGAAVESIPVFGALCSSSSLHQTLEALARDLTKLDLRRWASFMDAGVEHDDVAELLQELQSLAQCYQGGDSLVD
# UniProt P20585: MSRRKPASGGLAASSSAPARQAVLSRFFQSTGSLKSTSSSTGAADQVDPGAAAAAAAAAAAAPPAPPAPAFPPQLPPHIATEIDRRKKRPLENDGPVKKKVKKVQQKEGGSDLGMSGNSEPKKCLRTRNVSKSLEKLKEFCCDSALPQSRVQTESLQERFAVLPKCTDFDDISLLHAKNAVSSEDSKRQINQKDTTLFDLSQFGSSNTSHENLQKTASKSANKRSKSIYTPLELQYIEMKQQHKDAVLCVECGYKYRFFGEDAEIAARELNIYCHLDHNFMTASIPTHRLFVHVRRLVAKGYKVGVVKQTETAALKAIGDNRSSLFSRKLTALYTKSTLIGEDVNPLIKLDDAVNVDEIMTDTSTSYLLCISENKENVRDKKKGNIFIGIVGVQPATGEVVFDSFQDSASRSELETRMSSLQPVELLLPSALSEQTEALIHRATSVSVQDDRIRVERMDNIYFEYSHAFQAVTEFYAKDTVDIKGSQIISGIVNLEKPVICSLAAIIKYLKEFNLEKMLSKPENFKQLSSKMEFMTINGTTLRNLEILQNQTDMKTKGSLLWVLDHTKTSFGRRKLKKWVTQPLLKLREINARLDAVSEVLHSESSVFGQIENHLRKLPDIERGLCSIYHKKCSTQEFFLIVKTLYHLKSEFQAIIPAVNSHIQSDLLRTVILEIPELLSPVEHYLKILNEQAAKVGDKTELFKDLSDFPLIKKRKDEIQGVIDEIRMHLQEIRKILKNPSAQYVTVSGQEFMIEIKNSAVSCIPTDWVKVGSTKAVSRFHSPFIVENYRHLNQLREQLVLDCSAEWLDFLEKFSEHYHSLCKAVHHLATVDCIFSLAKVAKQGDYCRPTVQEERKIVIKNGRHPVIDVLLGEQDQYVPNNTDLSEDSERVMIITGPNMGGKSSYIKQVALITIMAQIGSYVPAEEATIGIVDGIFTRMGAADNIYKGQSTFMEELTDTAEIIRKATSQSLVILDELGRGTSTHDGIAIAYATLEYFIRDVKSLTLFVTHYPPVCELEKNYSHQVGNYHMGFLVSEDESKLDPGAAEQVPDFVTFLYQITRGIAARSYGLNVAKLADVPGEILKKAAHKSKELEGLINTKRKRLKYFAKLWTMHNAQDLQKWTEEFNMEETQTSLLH
# The other results are listed elsewhere or left out.
# Compound: Cc1cc(ccc1-c1ccccc1)C(=O)N1CCCN(CC1)C(=O)CCl [compound 10]
# Assay: probe-labelled cysteine peptide fold change vs DMSO (competition) (log2 fold change); higher = less target engagement (more negative = stronger competition)
# Settings: THP-1, incubation time: 4 h
# 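Further: competitive profiling in live THP-1 cells: cysteine peptides tagged with an iodoacetamide desthiobiotin (IA-DTB) probe, intensity after compound treatment relative to DMSO-treated cells.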
Target,probe-labelled cysteine peptide fold change (10 µM),probe-labelled cysteine peptide fold change (50 µM)
MYBBP1A_Q9BQG0_623_SPAESCDLLGDIQTCIR (UniProt Q9BQG0),-0.0385,-0.16
MSL1_Q68DK7_125_QAGIGGEPAAAGAGCSPR (UniProt Q68DK7),-0.205,0.114
MTR_Q99707_1081_DSASTEPYYCLSDFIAPLHSGIR (UniProt Q99707),-0.0513,0.00578
MVD_P53602_12_PLAAVTCTAPVNIAVIK (UniProt P53602),-0.196,-0.161
MYCBP2_O75592_3786_NITINCVK (UniProt O75592),-0.699,-0.362
MTREX_P42285_399_KDCEAYALQMTK (UniProt P42285),-0.127,0.145
MTRR_Q9UBK8_64_AIAEEICEQAVVHGFSADLHCISESDKYDLK (UniProt Q9UBK8),-0.113,-0.379
MXI1_P50539_100_LKVLIPLGPDCTR (UniProt P50539),-0.14,0.213
MTMR1_Q13613_507_VGHGNDNHADADRSPIFLQFVDCVWQMTR (UniProt Q13613),0.254,0.382
MSH6_P52701_615_SSLSCSLQEGLIPGSQFWDASK (UniProt P52701),-0.337,-0.752
MSRB2_Q9Y3D2_169_FCINSVALK (UniProt Q9Y3D2),-0.137,-0.73
MRPS35_P82673_130_DFCTEWPAALDSDEK (UniProt P82673),-0.148,-0.238
MTA1_Q13330_281_AISALVPQGGPVLCR (UniProt Q13330),0.093,0.56
MTHFSD_Q2M296_215_VIATGCK (UniProt Q2M296),-0.0424,0.289
MSH2_P43246_822_GVCDQSFGIHVAELANFPK (UniProt P43246),-0.0886,0.121
MSH6_P52701_1158+1165_QAGLLAVMAQMGCYVPAEVCR (UniProt P52701),-0.235,-0.185
MVP_Q14764_515_RALCLLLGPDFFTDVITIETADHAR (UniProt Q14764),-0.0584,0.341
MSL3P1_P0C860_127_LVQLPCHTNIITILESYVK (UniProt P0C860),0.252,0.301
MTMR9_Q96QG7_30_VDNVVLHRPFYPAVEGTLCLTGHHLILSSR (UniProt Q96QG7),0.0201,0.204
MRPS22_P82650_231_HVDVLNLCFAQFEPDSTEYIK (UniProt P82650),0.131,0.0168
MTA3_Q9BTC8_532_KPLACIIGYLEIHPAK (UniProt Q9BTC8),-0.345,-0.533
MSL1_Q68DK7_221_KSPLGGGGGSGASSQAACLK (UniProt Q68DK7),0.114,-0.864

# Reformatted: results already given.
Target | probe-labelled cysteine peptide fold change (10 µM) | probe-labelled cysteine peptide fold change (50 µM)
MYBBP1A_Q9BQG0_623_SPAESCDLLGDIQTCIR (UniProt Q9BQG0) | -0.0385 | -0.16
MSL1_Q68DK7_125_QAGIGGEPAAAGAGCSPR (UniProt Q68DK7) | -0.205 | 0.114

# Later entries

Target,probe-labelled cysteine peptide fold change (10 µM),probe-labelled cysteine peptide fold change (50 µM)
MTREX_P42285_297_QFAEWICHLHK (UniProt P42285),0.083,0.19
MYBBP1A_Q9BQG0_363_FAPEMDDYVGTFLEGCQDDPER (UniProt Q9BQG0),-0.153,0.257
MSTO1_Q9BUK6_411_CFAQSVVLR (UniProt Q9BUK6),0.0387,0.114
MYBBP1A_Q9BQG0_890_YCHDLGER (UniProt Q9BQG0),0.0113,0.0393
MRPS28_Q9Y2Q9_124_FHCVCR (UniProt Q9Y2Q9),0.163,-0.266
MYCBP2_O75592_4318_QVFKEEEEAIKVDLHEGCGR (UniProt O75592),-0.166,-0.439
MSH3_P20585_847_QGDYCRPTVQEER (UniProt P20585),-0.0854,0.177
MYCBP2_O75592_222_FSHPSLCLR (UniProt O75592),-0.0571,0.147
MYCBP2_O75592_3392_MPCLYLQTLAR (UniProt O75592),-0.0844,-0.345
MVB12B_Q9H7P6_161_DSTEAAICDIR (UniProt Q9H7P6),0.0873,0.189
MSTO1_Q9BUK6_347_LCSSPVSMVHLADMLSFCGK (UniProt Q9BUK6),0.0999,0.248
MSH6_P52701_426_SQNFDLVICYK (UniProt P52701),-0.258,0.619
MTMR3_Q13615_151_EQHGDLCRPGEHVTSR (UniProt Q13615),-0.109,0.264
MYCBP2_O75592_4409_NEEHCLPCLHGCDK (UniProt O75592),0.00756,-0.0673
MRPS18A_Q9NVS2_186_DNVCYSR (UniProt Q9NVS2),-0.0735,-0.099
MTCH2_Q9Y6C9_49_QVCQLPGLFSYAQHIASIDGR (UniProt Q9Y6C9),-0.0446,0.0916
MSH3_P20585_833_AVHHLATVDCIFSLAK (UniProt P20585),0.0467,0.0422
MRPS2_Q9Y399_162_DCGEYAHTR (UniProt Q9Y399),-0.0234,0.183
MVB12A_Q96EY5_90_SPLPLGFSPVCDPMDSK (UniProt Q96EY5),-0.183,-0.186
MYBBP1A_Q9BQG0_942_GNTAEGCVHETQEK (UniProt Q9BQG0),-0.17,-0.151
MSH6_P52701_559_AYGVCFVDTSLGK (UniProt P52701),0.0183,-0.0198
MYH9_P35579_917_QELEEICHDLEAR (UniProt P35579),0.0572,0.414
